Data as given in PubChem BioAssay AID652243 (Drosophila RNAi Screening Center, 2013)
The screen tested about 24,000 reagents; this is a random part of those with a known target gene and a result. In the full data, 246 (1%) were called active. 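Plates not normalised; calls are printed but the firefly/Renilla ratio behind them is not deposited; fold cut for lowering reported inconsistently.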 Raw values vary from plate to plate and are shown uncorrected. The numbers tell different reagents against one gene apart. Names joined by + are all predicted targets of the reagent. Not given: the amount of reagent.

- Test: 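Fly genes required for human androgen receptor driven transcription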 (primary screen)
- Cell system: Drosophila S2R+ cells
- Knock-down reagent: long dsRNA against Drosophila genes
- Duration: 72 h (48 h, then 24 h hormone)
- Challenge: synthetic androgen R1881 at 10 nM for 24 h
- Measured: 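Per-well raw luminescence of the androgen-driven firefly reporter and of the Renilla control, two replicates each, without normalisation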
- Direction: firefly reporter light: higher = more light from androgen-responsive reporter; Renilla control light: higher = more constitutive control signal (cell number, transfection)
- Rule for the call: 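Hit when the log firefly-to-Renilla ratio dropped or increased by a fixed fold versus the mean of GFP or LacZ controls across duplicate plates; lowering cut given as 1.5 and as 3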
- Calls: active = hit: reporter lowered or raised; inactive = no hit

gene | dsRNA no. | firefly reporter light, replicate 1 | firefly reporter light, replicate 2 | Renilla control light, replicate 1 | Renilla control light, replicate 2 | Call
Neb-cGP | 1 | 6.30e5 | 5.51e5 | 5.20e6 | 5.03e6 | inactive
CG12674 | 1 | 64441 | 86245 | 8.00e5 | 3.82e5 | inactive
hoe2 | 1 | 2.15e5 | 1.08e5 | 2.47e6 | 1.06e6 | inactive
CheB38a | 1 | 4.39e5 | 4.85e5 | 2.43e6 | 3.22e6 | inactive
CheB38a | 2 | 4.68e5 | 3.30e5 | 1.44e6 | 1.62e6 | inactive
Tpst | 1 | 5.59e5 | 1.54e5 | 5.84e5 | 1.69e5 | inactive
Tpst | 2 | 5.03e5 | 5.43e5 | 4.08e6 | 4.03e6 | inactive
Tpst | 3 | 1.15e5 | 1.27e5 | 3.25e6 | 4.15e6 | inactive
Tpst | 4 | 1.83e6 | 1.71e6 | 1.81e6 | 1.84e6 | inactive
Tpst | 5 | 8.12e5 | 6.16e5 | 8.89e5 | 6.31e5 | inactive
Tpst | 6 | 8.68e5 | 1.09e6 | 1.07e6 | 1.33e6 | inactive
Deaf1 | 1 | 2.90e5 | 2.54e5 | 1.23e6 | 1.66e6 | inactive
Deaf1 | 2 | 3.30e5 | 4.69e5 | 7.80e5 | 1.23e6 | inactive
Deaf1 | 3 | 3.70e5 | 3.88e5 | 8.47e5 | 7.04e5 | inactive
gt | 1 | 5.38e5 | 6.34e5 | 92340 | 1.06e5 | inactive
gt | 2 | 3.32e5 | 6.31e5 | 8.44e5 | 1.16e6 | inactive
Regnase-1 | 1 | 48106 | 70181 | 5.70e5 | 5.09e5 | inactive
NANS | 1 | 1.26e5 | 77291 | 2.37e6 | 1.47e6 | inactive
NANS | 2 | 2.86e5 | 2.33e5 | 4.97e5 | 8.54e5 | inactive
CG12035 | 1 | 6.36e5 | 6.29e5 | 8.87e5 | 9.57e5 | inactive
CG43666 + CG43667 + CG43668 | 1 | 1.95e5 | 2.05e5 | 4.22e5 | 3.22e5 | inactive
CG43666 + CG43667 + CG43668 | 2 | 2.56e5 | 3.29e5 | 1.80e6 | 1.49e6 | inactive
CG13685 | 1 | 1.13e5 | 1.57e5 | 1.45e6 | 2.81e6 | inactive
CG13685 | 2 | 8.44e5 | 7.64e5 | 1.09e6 | 9.14e5 | inactive
Ald1 | 1 | 60186 | 66401 | 3.89e5 | 4.32e5 | inactive
Ald1 | 2 | 5.95e5 | 9.29e5 | 6.99e5 | 6.86e5 | inactive
Tengl2 | 1 | 7.04e5 | 7.12e5 | 1.76e6 | 1.42e6 | inactive
Tengl2 | 2 | 5.79e5 | 5.19e5 | 1.46e6 | 1.36e6 | inactive
Nacalpha | 1 | 5.17e5 | 4.93e5 | 1.37e6 | 1.70e6 | inactive
Nacalpha | 2 | 4.39e5 | 3.87e5 | 6.88e5 | 6.13e5 | inactive
Cisd2 | 1 | 2.73e5 | 4.33e5 | 2.18e6 | 3.27e6 | inactive
Cenp-C | 1 | 90856 | 98867 | 1.83e6 | 1.68e6 | inactive
Cenp-C | 2 | 9.14e5 | 9.44e5 | 1.07e6 | 1.14e6 | inactive
ND-ASHI | 1 | 3.01e5 | 3.32e5 | 3.04e6 | 3.73e6 | inactive
ND-ASHI | 2 | 1.90e5 | 1.88e5 | 5.34e5 | 6.61e5 | inactive
CR33318 | 1 | 5.13e5 | 7.84e5 | 1.17e6 | 2.08e6 | inactive
Targ | 1 | 88884 | 93891 | 9.09e5 | 9.09e5 | inactive
CG10597 | 1 | 2.23e5 | 2.25e5 | 2.25e6 | 1.90e6 | inactive
CG10597 | 2 | 8.79e5 | 1.09e6 | 1.15e6 | 1.19e6 | inactive
CG42816 | 1 | 1.97e5 | 1.72e5 | 1.95e6 | 2.02e6 | inactive

7 consecutive reagents from above:
gene | dsRNA no. | firefly reporter light, replicate 1 | firefly reporter light, replicate 2 | Renilla control light, replicate 1 | Renilla control light, replicate 2 | Call
CG43666 + CG43667 + CG43668 | 1 | 1.95e5 | 2.05e5 | 4.22e5 | 3.22e5 | inactive
CG43666 + CG43667 + CG43668 | 2 | 2.56e5 | 3.29e5 | 1.80e6 | 1.49e6 | inactive
CG13685 | 1 | 1.13e5 | 1.57e5 | 1.45e6 | 2.81e6 | inactive
CG13685 | 2 | 8.44e5 | 7.64e5 | 1.09e6 | 9.14e5 | inactive
Ald1 | 1 | 60186 | 66401 | 3.89e5 | 4.32e5 | inactive
Ald1 | 2 | 5.95e5 | 9.29e5 | 6.99e5 | 6.86e5 | inactive
Tengl2 | 1 | 7.04e5 | 7.12e5 | 1.76e6 | 1.42e6 | inactive
